Data source: PubChem BioAssay AID652243 (Drosophila RNAi Screening Center, 2013)

Test: 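Fly genes required for human androgen receptor driven transcription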 (primary screen)
Cell system: Drosophila S2R+ cells
Reagents: long dsRNA against Drosophila genes
Timing: 72 h (48 h, then 24 h hormone)
Conditions: synthetic androgen R1881 at 10 nM for 24 h
Detection: 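Per-well raw luminescence of the androgen-driven firefly reporter and of the Renilla control, two replicates each, without normalisation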
Reading the numbers: firefly reporter light: higher = more light from androgen-responsive reporter; Renilla control light: higher = more constitutive control signal (cell number, transfection)
Rule for the call: 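Across duplicate plates, a knock-down whose log firefly/Renilla ratio shifted a set fold down or up from the GFP/LacZ control mean was a hit; the downward cut appears as both 1.5 and 3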
Calls: active = hit: reporter lowered or raised; inactive = no hit
In all, the deposit lists about 24,000 reagents; below is an unselected part of those that have a named target and a result. Over the whole deposit, 246 (1%) are marked active. 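Plates not normalised; calls are printed but the firefly/Renilla ratio behind them is not deposited; fold cut for lowering reported inconsistently.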 The raw values are shown without normalisation. The numbers tell different reagents against one gene apart. Not given: the amount of reagent.

target	reagent no.	firefly reporter light, replicate 1	firefly reporter light, replicate 2	Renilla control light, replicate 1	Renilla control light, replicate 2	outcome
CG10348	1	6.55e5	7.55e5	1.54e6	2.23e6	inactive
CG10348	2	9.50e5	6.79e5	1.45e6	1.62e6	inactive
CG42676	1	62022	1.02e5	1.30e6	1.79e6	inactive
CG42676	2	8.83e5	1.08e6	1.07e6	1.13e6	inactive
nonA-l (nonA-like)	1	56607	66932	1.87e6	1.82e6	inactive
nonA-l (nonA-like)	2	4.55e5	2.17e5	3.93e5	5.02e5	inactive
Paris (Parkin Interacting Substrate)	1	1.09e6	2.07e6	1.54e6	2.00e6	inactive
Paris (Parkin Interacting Substrate)	2	6.78e5	5.59e5	6.68e5	6.68e5	inactive
CG30048	1	6.67e5	7.85e5	1.80e6	1.49e6	inactive
eIF2alpha (eukaryotic translation initiation factor 2 subunit alpha)	1	1.01e5	1.96e5	4.15e5	5.53e5	inactive
CG33642	1	1.01e6	6.52e5	2.38e6	1.35e6	inactive
ssp (sunspot)	1	6.33e5	4.40e5	1.25e6	9.44e5	inactive
kcc (kazachoc)	1	1.09e6	6.59e5	2.24e6	1.17e6	inactive
kcc (kazachoc)	2	4.09e5	4.82e5	1.75e6	1.65e6	inactive
JTBR	1	1.02e5	66366	7.06e5	8.10e5	inactive
PheRS-m (Phenylalanyl-tRNA synthetase, mitochondrial)	1	7.86e5	9.95e5	1.32e6	1.22e6	inactive
Klp59D (Kinesin-like protein at 59D)	1	3.71e5	3.43e5	2.65e6	2.80e6	inactive
Klp59D (Kinesin-like protein at 59D)	2	2.32e5	2.81e5	3.64e5	3.94e5	inactive
Klp59D (Kinesin-like protein at 59D)	3	7.33e5	3.61e5	2.01e6	1.71e6	inactive
pdm3 (pou domain motif 3)	1	4.71e5	4.60e5	2.67e6	2.46e6	inactive
pdm3 (pou domain motif 3)	2	9.36e5	1.09e6	2.16e6	2.01e6	inactive
pdm3 (pou domain motif 3)	3	4.24e5	4.37e5	7.60e5	8.14e5	inactive
pdm3 (pou domain motif 3)	4	3.98e5	4.87e5	1.01e6	9.49e5	inactive
cv-d (crossveinless d)	1	84424	1.28e5	5.94e5	6.67e5	inactive
cv-d (crossveinless d)	2	1.09e5	1.40e5	1.67e6	1.88e6	inactive
cv-d (crossveinless d)	3	2.09e5	1.66e5	3.04e6	3.36e6	inactive

Just “Renilla control light, replicate 2”, for 2 of the entries above:
kcc (kazachoc) #1 = 1.17e6
kcc (kazachoc) #2 = 1.65e6
